Publication PMC10167121, “Completing the TRB family: newly characterized members show ancient evolutionary origins and distinct localization, yet similar interactions”
For at least one entry, the source does not settle the construct or the ends of the probe. At least one verdict was read from the data and is not stated in words by the source. Protein sequences can lack the tags named with them.

Molecular target: T1, TRB1 (UniProt Q8VWK4)
T1 sequence (looked up, limits assumed): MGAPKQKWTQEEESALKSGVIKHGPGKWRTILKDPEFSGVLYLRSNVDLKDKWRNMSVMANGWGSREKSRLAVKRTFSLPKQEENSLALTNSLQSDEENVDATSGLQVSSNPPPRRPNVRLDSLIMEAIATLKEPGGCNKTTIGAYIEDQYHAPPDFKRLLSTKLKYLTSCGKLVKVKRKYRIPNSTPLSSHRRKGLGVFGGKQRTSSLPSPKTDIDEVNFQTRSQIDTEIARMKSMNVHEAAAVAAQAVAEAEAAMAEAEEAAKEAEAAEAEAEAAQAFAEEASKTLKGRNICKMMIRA
Test: EMSA
Conditions: non-telomeric competitor 1-100x; 10 mM Tris-HCl pH 8.0, 1 mM EDTA, 1 mM DTT, 50 mM NaCl, 5% glycerol; 10 pmol protein, 1 pmol probe, on ice 20 min; 7.5% PAGE, 0.5x TBE, 15 C; recombinant protein; protein details: His-tag (pHGWA); label: 32P 5'-end

TTTTTCACGAAAACCCTAATCGCAGTCG (double strand) [telo-box]
binding result: binds
